No constants are given. Whether binding was seen depends on the method and setting. Binding seen in cells or lysates may run through a third protein. Some binding calls cover weakened binding; strength is not graded here.
Target: Smoothened (SMO) (human) (UniProt Q99835)
Experiment: reciprocal co-immunoprecipitation from A673 cell lysate (anti-SMO or anti-C1GALT1 IP, immunoblot)

Protein sequences, listed by entry. Tags and fused reporters are not part of them. Residues count along the entry.
UniProt Q99835, residues 28-787: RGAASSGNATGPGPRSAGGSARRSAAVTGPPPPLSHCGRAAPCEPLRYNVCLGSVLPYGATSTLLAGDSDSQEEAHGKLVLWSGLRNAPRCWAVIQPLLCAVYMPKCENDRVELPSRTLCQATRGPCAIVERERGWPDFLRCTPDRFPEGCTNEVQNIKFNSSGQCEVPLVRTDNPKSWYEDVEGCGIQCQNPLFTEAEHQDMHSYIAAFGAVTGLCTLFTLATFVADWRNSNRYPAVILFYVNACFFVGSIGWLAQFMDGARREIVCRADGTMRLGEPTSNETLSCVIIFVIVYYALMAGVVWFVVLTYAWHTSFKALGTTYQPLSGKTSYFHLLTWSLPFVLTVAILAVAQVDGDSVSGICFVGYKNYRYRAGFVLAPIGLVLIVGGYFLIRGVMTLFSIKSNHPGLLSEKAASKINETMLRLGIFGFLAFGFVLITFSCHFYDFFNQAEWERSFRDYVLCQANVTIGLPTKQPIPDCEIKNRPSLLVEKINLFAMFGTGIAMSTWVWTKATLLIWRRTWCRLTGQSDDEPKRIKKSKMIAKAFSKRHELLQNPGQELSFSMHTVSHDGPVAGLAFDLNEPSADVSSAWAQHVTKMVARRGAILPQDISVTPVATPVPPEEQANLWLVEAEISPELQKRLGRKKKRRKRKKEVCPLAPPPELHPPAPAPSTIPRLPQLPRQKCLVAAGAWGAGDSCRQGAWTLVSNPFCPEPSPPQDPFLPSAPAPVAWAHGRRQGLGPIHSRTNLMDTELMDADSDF
UniProt Q9NS00: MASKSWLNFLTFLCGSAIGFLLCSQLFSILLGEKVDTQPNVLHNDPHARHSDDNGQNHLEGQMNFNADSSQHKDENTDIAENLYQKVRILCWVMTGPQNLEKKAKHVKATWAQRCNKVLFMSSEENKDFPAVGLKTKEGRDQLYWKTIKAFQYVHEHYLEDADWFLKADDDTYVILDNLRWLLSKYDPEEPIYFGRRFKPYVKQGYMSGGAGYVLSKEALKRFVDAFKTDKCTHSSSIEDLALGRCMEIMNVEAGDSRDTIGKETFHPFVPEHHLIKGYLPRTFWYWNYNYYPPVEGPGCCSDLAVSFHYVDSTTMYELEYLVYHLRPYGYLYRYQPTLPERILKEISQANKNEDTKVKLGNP

“core 1 synthase, glycoprotein-N-acetylgalactosamine 3-beta-galactosyltransferase 1 (C1GALT1) (from UniProt Q9NS00 1-363) (enzyme)” was tested, and the binding was “binds”.

Source: patent publication US20260240837A1, “Compositions Reducing the Expression or Activity of C1 GALT1 for Treating Ewing Sarcoma” (University of Massachusetts Medical School, priority 2023, published 2026)
